Some of the results follow. These are further read-outs of the screen, such as a control signal, another cell line or another target. No call is given for them. Compounds called inactive in the main read-out are mostly missing here. Potencies come from curve fits of mixed quality, noted in brackets.
Test: qHTS Assay for Lipid Storage Modulators in Drosophila S3 Cells;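 as to cell number change: cells counted by Cell Tracker Red CMTPX staining in the red channel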
Details: BODIPY lipid droplet fluorescence, 18-24 h; for cell number change: measured here: cell count max response, cells fed with added oleic acid
Procedure, shortened: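 Drosophila S3 cells got compounds at several concentrations plus oleic acid (400 uM solution). Laser-scanning cytometry with 488 nm excitation read lipid droplets at 500-530 nm and cells at 575-640 nm. Percent activity was relative to 20 uM Triacsin C.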

[1] = measured here: lipid fluorescence (Fed channel) AC50, cells fed with added oleic acid
[2] = measured here: cell number channel AC50, cells fed with added oleic acid

Row | SMILES | cell number change | AC50 [1] | AC50 [2]
1 | CC(C)CC(=O)Nc1cc([N+](=O)[O-])ccc1Cl | 2.45% | 1.46 µM [rising, partial curve] | 
2 | Nc1c(N(Cc2ccco2)C(=O)COc2ccccc2)c(=O)[nH]c(=O)n1Cc1ccccc1 | 1.68% | 0.00461 µM [rising, full curve, poor fit] | 
3 | NS(=O)(=O)c1ccc(CCNC(=O)c2cncc(Br)c2)cc1 | -14.8% |  | 
4 | O=C(COC(=O)c1ccc2c(c1Cl)C(=O)c1ccccc1C2=O)NC1CC1 | -31.5% | 0.0731 µM [rising, full curve, poor fit] | 29.1 µM [falling, single point]
5 | Cc1cc(NO)c(C(C)C)cc1N=O | 20.6% | 0.366 µM [falling, full curve] | 7.31 µM [falling, partial curve]
6 | COc1ccc(CCN2CC(C(=O)NCc3nc4ccccc4n3C)CCC2=O)cc1 (stereo not given) | -29% | 0.651 µM [falling, single point] | 
7 | O=C(CN1C(=O)/C(=C/c2ccccc2F)Sc2ccccc21)NCC1CCCO1 (stereo not given) | -21.5% | 2.59 µM [rising, single point] | 
8 | COc1ccccc1CNC(=O)C(CCSC)NS(=O)(=O)c1ccc2c(c1)oc(=O)n2C (stereo not given) | -15.5% |  | 
9 | COc1ccc(NC(=O)Nc2ccccc2F)cc1 | 51.7% |  | 8.2 µM [rising, partial curve, poor fit]
10 | O=C(N/C(=C\c1ccc(Br)cc1)c1nc2ccccc2[nH]1)c1ccco1 | -16.3% | 29.1 µM [falling, single point] | 
11 | Cc1ccnc(NC(=O)C2CC(=O)N(Cc3ccccc3)C2)c1 (stereo not given) |  |  | 0.116 µM [falling, full curve, poor fit]
12 | O=C(COC(=O)c1cc[n+]([O-])cc1)Nc1cccc(Cl)c1Cl | -32.3% |  | 13 µM [falling, partial curve]
13 | COc1ccc(CCNC(=O)CN(c2cc(C)cc(C)c2)S(=O)(=O)c2c(C)noc2C)cc1OC | -41.1% | 2.31 µM [rising, single point] | 29.1 µM [falling, single point]
14 | COc1ccc(/C(N)=N/OC(=O)c2cccc([N+](=O)[O-])c2C)cc1OC | 65.2% | 1.46 µM [rising, partial curve] | 1.16 µM [rising, full curve, poor fit]
15 | O=C1C=C(c2ccc(C(=O)O)cc2)C[C@@H](c2ccc3c(c2)OCO3)C1 | -27.3% |  | 
16 | Cc1ccc(S(=O)(=O)N(c2ccc(Br)cc2)C2C=CS(=O)(=O)C2)cc1 (stereo not given) | -28.7% |  | 
17 | O=C(CSCCO)Nc1ccc(C23CC4CC(CC(C4)C2)C3)cc1 | -28.1% | 20.6 µM [falling, single point] | 
18 | Cc1cccc(OCCNc2cc(N3CCOCC3)ccc2[N+](=O)[O-])c1 |  | 4.11 µM [rising, partial curve] | 4.61 µM [rising, single point]
19 | O=[N+]([O-])c1ccc(CN2CCC(Cc3ccccc3)CC2)cc1 | 13.3% | 29.1 µM [falling, single point] | 
20 | Cc1cc(NC(=O)COC(=O)C2CCN(C(=O)c3ccc(Cl)cc3)CC2)no1 | -33% | 2.06 µM [falling, single point] | 4.61 µM [falling, full curve]

Row | SMILES | cell number change | AC50 [1] | AC50 [2]
21 | NC(=O)C(NC(=O)OCc1ccccc1)c1ccccc1 (stereo not given) | 3.96% | 0.651 µM [rising, full curve, poor fit] | 
22 | Cc1cnc(NC(=O)c2ccc3c(c2)OCCO3)s1 | -4.06% |  | 
23 | CCOC(=O)c1c(NC(=O)Cn2cnc3sc(C)c(-c4ccccc4)c3c2=O)sc(C)c1C |  | 0.82 µM [rising, partial curve] | 
24 | O=C(Cc1ccc(-c2ccccc2)cc1)Nc1ncccc1O | -12.9% | 0.58 µM [rising, single point] | 0.517 µM [rising, single point]
25 | CSc1ccc(/C=N/NC(=O)C[n+]2ccccc2)cc1 | -1.06% |  | 
26 | O=C1CSC(c2ccccn2)N1c1ccc2ccccc2c1 (stereo not given) | -8.56% |  | 
27 | O=c1c2c(nc3c(-c4ccc(Cl)cc4)c[nH]n13)CCC2 | 36.9% | 0.651 µM [falling, single point] | 13 µM [rising, single point]
28 | O=C(c1ccco1)N1CCC(c2nc3c(nnn3Cc3c(Cl)cccc3Cl)c(=O)[nH]2)CC1 | 1.26% |  | 
29 | CCN(CC)C(=O)Cn1c(=O)n(CC(=O)N2CCCCC2)c(=O)c2sccc21 | -1.18% | 6.51 µM [rising, single point] | 
30 | COC(=O)C1CCN(S(=O)(=O)c2cn(C)c(=O)n(C)c2=O)CC1 | -28% | 3.66 µM [falling, full curve] | 3.66 µM [falling, full curve, poor fit]
31 | N=C1C(c2nc3ccccc3[nH]2)=C(O)CN1c1ccc(F)cc1 | -14.4% | 0.0291 µM [falling, full curve, poor fit] | 
32 | COc1ccc(S(=O)(=O)Cc2ccc(C(=O)N3CCN(c4cc(Cl)ccc4C)CC3)o2)cc1 | 11% |  | 0.517 µM [rising, full curve, poor fit]
33 | O=C(CSc1nnnn1-c1ccc(F)cc1)Nc1ccccc1F | -2.12% | 2.31 µM [rising, full curve] | 
34 | CCOC(=O)CSC1=C(C#N)C(c2ccc(C)cc2)C(C(=O)OC)C(=O)N1 (stereo not given) |  | 0.82 µM [rising, full curve] | 
35 | Cc1cc(C(=O)Nc2ccccc2C)c2ccccc2n1 | -2.19% | 20.6 µM [rising, partial curve] | 
36 | COc1ccc(C(=O)NN=C2CCCC2)c(OC)c1 | -2.97% |  | 
37 | Cc1nn(C)c(C(=O)NCc2ccc(Cl)cc2)c1Cl | -49.4% | 5.17 µM [falling, full curve] | 9.2 µM [falling, partial curve]
38 | CN(C(=O)Cn1cc([N+](=O)[O-])ccc1=O)C1CCCCC1 | 11% | 0.103 µM [rising, full curve, poor fit] | 
39 | Nc1nc(N2CCOCC2)nc(N(c2ccccc2)c2ccccc2)n1 | 5.18% |  | 
40 | CCCCn1c(SCC(=O)OCC)nnc1-c1ccoc1C | -22.9% |  | 0.82 µM [falling, full curve, poor fit]

Row | SMILES | cell number change | AC50 [1] | AC50 [2]
41 | Cc1ccc(C(=O)NCC(=O)OCCCOC(=O)CNC(=O)c2ccc(C)c(C)c2)cc1C | -32.6% |  | 18.4 µM [falling, single point]
42 | CS(=O)(=O)N1CCN(c2ccc(NC(=O)CSc3ccc(Cl)cc3)cc2)CC1 | 45.1% | 0.651 µM [rising, partial curve, poor fit] | 1.84 µM [rising, partial curve]
43 | CC(C)NC(=O)C1=NN(c2ccccc2)C(=O)CC1 |  | 6.51 µM [rising, single point] | 
44 | CCOC(=O)CN1C(=O)/C(=C/c2ccc(Cl)cc2)Oc2ccccc21 | 31.1% | 3.26 µM [rising, partial curve] | 3.26 µM [rising, partial curve]
45 | CCOC(=O)C(=O)NCC(c1cccs1)S(=O)(=O)c1ccc(F)cc1 (stereo not given) | -32% | 14.6 µM [falling, partial curve] | 20.6 µM [falling, single point]
46 | CC(C)CN(C(=O)CSc1ncnc2sccc12)C1CCS(=O)(=O)C1 (stereo not given) | 5.95% | 14.6 µM [rising, partial curve] | 
47 | CCCc1nnc(NC(=O)C2CCN(C(=O)C3CC(=O)N(c4ccc(C)cc4)C3)CC2)s1 (stereo not given) | 8.06% | 0.00731 µM [rising, full curve, poor fit] | 
48 | Cc1cc2c(cc(C(=O)OC(C(=O)NC3CCCCC3)C(C)C)n2C)o1 (stereo not given) |  | 14.6 µM [falling, partial curve, poor fit] | 
49 | COc1cc2[nH]c(=S)nc(NCCc3ccc(C)cc3)c2cc1OC | -6.85% | 0.92 µM [rising, full curve, poor fit] | 
50 | COCCCN(Cc1cccs1)S(=O)(=O)c1csc(C(N)=O)c1 | -17.1% | 29.1 µM [rising, single point] | 
51 | Cc1cc(NC(=O)CSc2nc3c(c(=O)n(C)c(=O)n3C)n2C(C)C)no1 | 13.9% |  | 
52 | Cn1c(=O)n(CCN2CCOCC2)c(=O)c2c1nc1n2CCCN1c1ccccc1 | 9.69% |  | 
53 | Cc1cc([N+](=O)[O-])cc2c1NC(=O)C2(O)N1CCCCCC1 (stereo not given) | 5.79% | 0.206 µM [rising, full curve, poor fit] | 
55 | CC(=O)c1ccc(N2CCN(C(=O)c3cc(-c4ccc5c(c4)OCO5)nc4ccccc34)CC2)cc1 |  | 0.92 µM [rising, full curve] | 1.46 µM [rising, full curve, poor fit]
56 | COc1cc2nc(Nc3ccc(C)c(C)c3)nc(N)c2cc1OC | 18.1% | 29.1 µM [rising, single point] | 
57 | Cc1cccc(N2C(=O)CC(N3CCN(C(=O)c4ccccc4)CC3)C2=O)c1 (stereo not given) | -23.4% | 16.4 µM [falling, partial curve] | 0.517 µM [falling, full curve, poor fit]
58 | COC(=O)C1=C(N)Oc2cc(C)n(CC3CCCO3)c(=O)c2C1c1ccc(Cl)c(Cl)c1 (stereo not given) |  | 6.51 µM [rising, single point] | 0.517 µM [rising, single point]
59 | Cc1noc(C)c1CN1C(=O)c2cccc([N+](=O)[O-])c2C1=O | 16.2% |  | 
60 | COc1ccc(-n2nnnc2S(=O)(=O)Cc2ccc(C(=O)O)cc2)cc1 | -154% | 29.1 µM [falling, single point] | 29.1 µM [falling, single point]

Random excerpt: 5 entries already listed, in no set order.
Row | SMILES | cell number change | AC50 [1] | AC50 [2]
43 | CC(C)NC(=O)C1=NN(c2ccccc2)C(=O)CC1 |  | 6.51 µM [rising, single point] | 
50 | COCCCN(Cc1cccs1)S(=O)(=O)c1csc(C(N)=O)c1 | -17.1% | 29.1 µM [rising, single point] | 
59 | Cc1noc(C)c1CN1C(=O)c2cccc([N+](=O)[O-])c2C1=O | 16.2% |  | 
46 | CC(C)CN(C(=O)CSc1ncnc2sccc12)C1CCS(=O)(=O)C1 (stereo not given) | 5.95% | 14.6 µM [rising, partial curve] | 
57 | Cc1cccc(N2C(=O)CC(N3CCN(C(=O)c4ccccc4)CC3)C2=O)c1 (stereo not given) | -23.4% | 16.4 µM [falling, partial curve] | 0.517 µM [falling, full curve, poor fit]

Reference: PubChem BioAssay AID2685 (National Center for Advancing Translational Sciences (NCATS), 2010)
